Results as given in article PMC11990703.
These are yes or no findings as the source states them, for the method shown. In cells and extracts the contact can be indirect. A yes stands for co-enrichment or nearness to the bait. Other partners may have been found.

B1: DEAD-box ATP-dependent RNA helicase 8-like (protein, UniProt Q6H7S2 1-508)
chain: MDPRARYPPGIGNGRGGNPNYYNRGPPLQQQHNHHQQQQTSAPHHQQYVQRQPQQHHHHNHHQQHQQQQQQWLRRNQIAREAAGTDRNSEPKAVAQSPAVDGIDSSSQDWKAQLKLPPQDTRYRTEDVTATKGNEFEDYFLKRELLMGIYEKGFERPSPIQEESIPIALTGSDILARAKNGTGKTAAFCIPALEKIDQEKNAIQVVILVPTRELALQTSQVCKELGKHLKIQVMVTTGGTSLKDDIIRLYQPVHLLVGTPGRILDLTKKGICILKDCSMLIMDEADKLLSPEFQPSVEQLIRYLPASRQILMFSATFPVTVKEFKDKYLPKPYVINLMDELTLKGITQFYAFVEERQKVHCLNTLFSKLQINQSIIFCNSVNRVELLAKKITELGYSCFYIHAKMLQDHRNRVFHDFRNGACRNLVCTDLFTRGIDIQAVNVVINFDFPKTAETYLHRVGRSGRFGHLGLAVNLITYEDRFNLYRIEQELGTEIKPIPPQIDQAIYCQ
B2: 60S acidic ribosomal protein P0-like (protein, UniProt P41095 1-319)
chain: MAIKRTKAEKKVAYDKKLCQLLDEYTKVLIAVADNVGSNQLQEIRKGLRGDSIVLMGKNTLIRRCIKVHADNTGNKEFLELMPLLVGNVGLIFTKGDLKEVREEVAKYKVGAPARVGLVAPVDVVVPPGNTGLDPSQTSFFQVLNIPTKINKGTVEIITPVELIKKGDKVGSSESALLAKLGIRPFSYGLVITNVYDSGSVFSPEVLDLTEDDLMEKFASGVSMVASVSLAISYPTIAAAPHMFLNGYKNVLAVAVETEYSYPHADKIKEYLKDPSKFAVAAPVAADSGAAAPSAAKEEEKKEEPEEESDGDLGMSLFD

Target: OsCAF1A-GFP (rice (Oryza sativa))
Test: affinity purification with mass spectrometry; GFP-Trap_A beads on total protein of transgenic rice embryo calli expressing 2X35S: OsCAF1A-GFP (2X35S: GFP as control); lysis buffer 10 mM Tris-HCl pH 7.5, 150 mM NaCl, 0.5 mM EDTA, 0.5% NP-40, 1 mM PMSF; 4 °C for 2 h; three washes; LC-MS/MS

binding | Binder
binds | B1
binds | B2
